In patent US20100003287A1, “Compositions and Methods Relating to Treatment of Cancer and Infectious Diseases” (THE PROVOST, FELLOWS AND SCHOLARS OF THE COLL. OF THE HOLY …, priority 2005, published 2010):
At least one compound was matched to its structure with a doubt left.

Legend:
[1] = test system: draining inguinal lymph nodes; test: Ex vivo cytokine responses in draining lymph nodes after CpG with or without Celecoxib; set-up: species or system C57BL/6 mice
[2] = test system: B16 tumour cells; test: Direct tumour therapy with CpG and Celecoxib; assay type: in vivo, C57BL/6 mice; conditions: CpG 10 μg, Celecoxib 100 μg or both s.c. at tumour site, days 3, 5 and 7
Experimental: C57BL/6 mice were challenged with 2×10^5 tumour cells s.c. and injected s.c. on days 3, 5 and 7 with either CpG (10 or 20 μg), the Cox-2 inhibitor Celecoxib (100 or 500 μg) or a combination of both at the tumour site. Mice were routinely monitored for tumour growth and survival. Tumour size was measured in two dimensions by callipers and determined by the following formula: (width^2×length)×π/6 where width is the lesser value. Mice were killed when tumour a length measured greater than 15 mm.
Mice were routinely monitored for tumour growth (FIG. 19).
Tumour volumes were routinely monitored (FIG. 20).
C57BL/6 mice were challenged with 2×10^5 tumour cells s.c. and injected s.c. on days 3, 5 and 7 with either CpG (20 μg), the Cox-2 inhibitor Celecoxib (500 μg) or a combination of both at the tumour site. Mice were routinely monitored for tumours and survival (FIG. 21).

[3] = CpG 10 μg with Celecoxib 5, 50 or 500 μg, 6 h, RT-PCR
[4] = s.c. CpG 10 μg alone or with Celecoxib 100 μg, nodes after 2 and 6 h, ELISA

Cc1ccc(-c2cc(C(F)(F)F)nn2-c2ccc(S(N)(=O)=O)cc2)cc1 [Celecoxib]
CpG-induced IL-10 mRNA expression in draining lymph node [1, 3]: suppressed
IL-27 mRNA expression in draining lymph node [1, 3]: enhanced
IL-10 production in draining lymph node [1, 4]: suppressed
TGF-beta production in draining lymph node [1, 4]: suppressed
tumour growth [2]: enhanced tumour growth
